Reference: PubChem BioAssay AID1671195 (Yale University, 2021)

Screen: 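Regulators of LDL receptor activity judged by labelled LDL uptake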 (primary screen)
System: human Huh7 hepatoma cells
Reagents: siRNA pool against human genes, 18 nM
Timing: about 2 to 2.5 days of knockdown, then 8 h LDL uptake
Challenge: DiI-labelled LDL at 30 µg/ml for 8 h, in lipoprotein-deficient serum medium
Read-out: 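Per-cell DiI-LDL intensity by automated imaging; well means scaled to the plate median and given as a robust z-score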
Reading the numbers: robust z-score: higher = more LDL uptake after knockdown
Active means: 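Active when two or more replicates show a robust z-score above 2 or below -2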
Here is an unselected part of about 22,000 reagents tested. About 1,510 of them (6.9%) were called active. 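Active includes knockdowns raising or lowering LDL uptake; positive z-scores mean more uptake, negative mean less.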 Entries without a mark were called inactive. Reagents against one gene are numbered here. Reagent sequences are not shown.

Depletion of APEX2 resulted in: robust z-score, replicate 1 = -0.0117; robust z-score, replicate 2 = -0.41; robust z-score, replicate 3 = -0.289.
Knock-down of EIF3E came out at: robust z-score, replicate 1 = -1.45; robust z-score, replicate 2 = -0.984; robust z-score, replicate 3 = -1.42.
Depletion of IKZF1 #1 resulted in: robust z-score, replicate 1 = 0.177; robust z-score, replicate 2 = 0.727; robust z-score, replicate 3 = 1.62.
Knock-down of IKZF1 #2 gave: robust z-score, replicate 1 = -1.73; robust z-score, replicate 2 = -1.5; robust z-score, replicate 3 = -0.768.
For CREG2, the entry reads robust z-score, replicate 1 = -0.324; robust z-score, replicate 2 = 0.052; robust z-score, replicate 3 = -0.838.
EFS gave robust z-score, replicate 1 = 2.55 (active); robust z-score, replicate 2 = 2.32; robust z-score, replicate 3 = 1.79.
PCDHB11 showed robust z-score, replicate 1 = -1.14; robust z-score, replicate 2 = -1.05; robust z-score, replicate 3 = -1.03.
After knock-down of NPAS2, the screen gave robust z-score, replicate 1 = 0.228; robust z-score, replicate 2 = 0.244; robust z-score, replicate 3 = -0.0276.
Knock-down of HLA-DQA2 gave: robust z-score, replicate 1 = -0.543; robust z-score, replicate 2 = 0.211; robust z-score, replicate 3 = -0.595.
With knock-down of FAM86C1P the results were robust z-score, replicate 1 = 0.503; robust z-score, replicate 2 = -1.53; robust z-score, replicate 3 = 0.84.
OR2T11 gave robust z-score, replicate 1 = 1.18; robust z-score, replicate 2 = 0.393; robust z-score, replicate 3 = -0.64.
Against HTR4, the entry reads robust z-score, replicate 1 = 0.9; robust z-score, replicate 2 = 0.25; robust z-score, replicate 3 = 0.697.
Depletion of POMGNT2 resulted in: robust z-score, replicate 1 = -0.9; robust z-score, replicate 2 = -0.56; robust z-score, replicate 3 = -0.426.

3 neighbouring records from above, for reference:
IKZF1 #2 | robust z-score, replicate 1: -1.73; robust z-score, replicate 2: -1.5; robust z-score, replicate 3: -0.768
CREG2 | robust z-score, replicate 1: -0.324; robust z-score, replicate 2: 0.052; robust z-score, replicate 3: -0.838
EFS | robust z-score, replicate 1: 2.55 (active); robust z-score, replicate 2: 2.32; robust z-score, replicate 3: 1.79

The listing continues:
With knock-down of OR51V1 the results were robust z-score, replicate 1 = -0.89; robust z-score, replicate 2 = -1.24; robust z-score, replicate 3 = -1.24.
After knock-down of CACNA1B the results were robust z-score, replicate 1 = 1.39; robust z-score, replicate 2 = 0.719; robust z-score, replicate 3 = 0.763.
For RHEB, the values are robust z-score, replicate 1 = -2.21; robust z-score, replicate 2 = -0.0371; robust z-score, replicate 3 = -1.41.
FEM1B gave robust z-score, replicate 1 = -0.766; robust z-score, replicate 2 = -0.72; robust z-score, replicate 3 = -1.13.
For PDCD6IP, the entry reads robust z-score, replicate 1 = 0.908; robust z-score, replicate 2 = -0.53; robust z-score, replicate 3 = -0.0822.
After knock-down of ITGAD the results were robust z-score, replicate 1 = 0.348; robust z-score, replicate 2 = -0.865; robust z-score, replicate 3 = -1.02.
After knock-down of DCUN1D1, the screen gave robust z-score, replicate 1 = 1.59 (active); robust z-score, replicate 2 = 2.38; robust z-score, replicate 3 = 2.26.
Against SLC35B1, the values are robust z-score, replicate 1 = -1.26; robust z-score, replicate 2 = -0.76; robust z-score, replicate 3 = 1.03.
With knock-down of SSX3, the screen gave robust z-score, replicate 1 = -0.873; robust z-score, replicate 2 = -0.651; robust z-score, replicate 3 = -0.911.
After knock-down of CCDC71, the screen gave robust z-score, replicate 1 = -0.131; robust z-score, replicate 2 = 0.312; robust z-score, replicate 3 = 0.518.
MYO1B scored robust z-score, replicate 1 = -0.306; robust z-score, replicate 2 = 0.697; robust z-score, replicate 3 = -1.
